Assay results taken from article PMC13100048.
No constants are given. Whether binding was seen depends on the method and setting. In cells and extracts the contact can be indirect. A yes stands for co-enrichment or nearness to the bait. Other partners may have been found. Where a sequence is shown, tags or fusion partners need not be part of it.

Amino acid sequences for entries named in this document (tags omitted). A change or cut given only in a name is not applied to a line headed by its entry.
UniProt Q54CB5: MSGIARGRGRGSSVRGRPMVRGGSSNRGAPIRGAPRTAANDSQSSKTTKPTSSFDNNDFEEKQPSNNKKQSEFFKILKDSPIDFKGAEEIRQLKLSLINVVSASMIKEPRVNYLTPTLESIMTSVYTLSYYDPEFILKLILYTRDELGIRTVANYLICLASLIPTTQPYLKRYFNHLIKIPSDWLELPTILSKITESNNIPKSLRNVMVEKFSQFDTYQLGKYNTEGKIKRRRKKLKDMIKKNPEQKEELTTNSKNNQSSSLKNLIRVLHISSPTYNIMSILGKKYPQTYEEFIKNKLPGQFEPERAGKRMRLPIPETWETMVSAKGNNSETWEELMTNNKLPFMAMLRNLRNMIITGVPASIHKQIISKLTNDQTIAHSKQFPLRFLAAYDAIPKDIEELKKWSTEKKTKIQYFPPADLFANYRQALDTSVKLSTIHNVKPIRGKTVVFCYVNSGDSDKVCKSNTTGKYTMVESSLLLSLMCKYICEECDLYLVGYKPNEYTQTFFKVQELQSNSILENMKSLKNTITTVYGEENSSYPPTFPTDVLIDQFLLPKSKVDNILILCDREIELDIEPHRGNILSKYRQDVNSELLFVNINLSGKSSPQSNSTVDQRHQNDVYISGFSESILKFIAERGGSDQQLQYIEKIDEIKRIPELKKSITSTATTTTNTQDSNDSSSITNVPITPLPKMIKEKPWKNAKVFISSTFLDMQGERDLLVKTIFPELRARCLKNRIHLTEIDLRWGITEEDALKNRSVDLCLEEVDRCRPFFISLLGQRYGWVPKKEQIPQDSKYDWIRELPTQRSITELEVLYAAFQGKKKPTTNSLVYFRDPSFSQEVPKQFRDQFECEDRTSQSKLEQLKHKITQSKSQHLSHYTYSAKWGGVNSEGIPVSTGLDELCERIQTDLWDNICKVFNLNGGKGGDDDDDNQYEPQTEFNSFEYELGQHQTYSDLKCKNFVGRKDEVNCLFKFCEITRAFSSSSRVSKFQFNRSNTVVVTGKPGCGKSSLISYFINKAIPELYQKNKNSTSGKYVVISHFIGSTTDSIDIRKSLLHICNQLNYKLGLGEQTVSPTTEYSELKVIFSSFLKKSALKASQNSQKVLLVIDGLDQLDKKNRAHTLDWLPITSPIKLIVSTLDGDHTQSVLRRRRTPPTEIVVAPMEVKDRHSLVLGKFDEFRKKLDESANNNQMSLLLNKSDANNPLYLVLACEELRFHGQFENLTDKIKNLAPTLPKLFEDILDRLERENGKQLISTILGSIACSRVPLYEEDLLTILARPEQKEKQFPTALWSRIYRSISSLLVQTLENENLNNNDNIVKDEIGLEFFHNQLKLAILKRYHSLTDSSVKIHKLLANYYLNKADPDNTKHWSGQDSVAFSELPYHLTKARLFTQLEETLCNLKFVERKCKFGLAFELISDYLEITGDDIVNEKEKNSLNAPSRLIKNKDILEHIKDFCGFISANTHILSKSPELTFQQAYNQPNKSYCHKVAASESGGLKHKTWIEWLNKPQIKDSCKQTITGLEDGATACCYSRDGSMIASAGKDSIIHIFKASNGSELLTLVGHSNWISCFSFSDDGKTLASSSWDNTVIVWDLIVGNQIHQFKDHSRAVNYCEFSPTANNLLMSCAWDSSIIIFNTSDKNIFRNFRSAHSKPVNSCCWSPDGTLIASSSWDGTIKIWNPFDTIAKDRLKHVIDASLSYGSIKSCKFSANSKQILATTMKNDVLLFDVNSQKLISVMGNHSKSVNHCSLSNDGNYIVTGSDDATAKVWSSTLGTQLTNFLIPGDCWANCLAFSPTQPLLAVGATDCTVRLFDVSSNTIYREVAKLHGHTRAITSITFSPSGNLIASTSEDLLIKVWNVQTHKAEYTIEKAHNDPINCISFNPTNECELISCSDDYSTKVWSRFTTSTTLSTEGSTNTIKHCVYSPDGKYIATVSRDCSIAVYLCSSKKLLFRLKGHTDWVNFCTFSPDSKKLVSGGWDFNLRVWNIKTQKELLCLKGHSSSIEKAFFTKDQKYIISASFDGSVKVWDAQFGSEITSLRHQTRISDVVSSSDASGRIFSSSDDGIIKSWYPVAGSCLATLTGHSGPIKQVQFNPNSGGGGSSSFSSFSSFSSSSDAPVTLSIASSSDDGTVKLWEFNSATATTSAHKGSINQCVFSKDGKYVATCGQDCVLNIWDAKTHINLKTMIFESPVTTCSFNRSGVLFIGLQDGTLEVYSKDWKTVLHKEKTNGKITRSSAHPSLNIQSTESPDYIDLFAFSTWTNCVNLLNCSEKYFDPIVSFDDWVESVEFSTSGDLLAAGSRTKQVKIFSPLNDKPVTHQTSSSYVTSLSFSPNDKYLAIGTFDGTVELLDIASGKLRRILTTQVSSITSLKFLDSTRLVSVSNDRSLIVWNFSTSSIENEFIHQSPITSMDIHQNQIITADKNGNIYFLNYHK
UniProt Q54LJ4: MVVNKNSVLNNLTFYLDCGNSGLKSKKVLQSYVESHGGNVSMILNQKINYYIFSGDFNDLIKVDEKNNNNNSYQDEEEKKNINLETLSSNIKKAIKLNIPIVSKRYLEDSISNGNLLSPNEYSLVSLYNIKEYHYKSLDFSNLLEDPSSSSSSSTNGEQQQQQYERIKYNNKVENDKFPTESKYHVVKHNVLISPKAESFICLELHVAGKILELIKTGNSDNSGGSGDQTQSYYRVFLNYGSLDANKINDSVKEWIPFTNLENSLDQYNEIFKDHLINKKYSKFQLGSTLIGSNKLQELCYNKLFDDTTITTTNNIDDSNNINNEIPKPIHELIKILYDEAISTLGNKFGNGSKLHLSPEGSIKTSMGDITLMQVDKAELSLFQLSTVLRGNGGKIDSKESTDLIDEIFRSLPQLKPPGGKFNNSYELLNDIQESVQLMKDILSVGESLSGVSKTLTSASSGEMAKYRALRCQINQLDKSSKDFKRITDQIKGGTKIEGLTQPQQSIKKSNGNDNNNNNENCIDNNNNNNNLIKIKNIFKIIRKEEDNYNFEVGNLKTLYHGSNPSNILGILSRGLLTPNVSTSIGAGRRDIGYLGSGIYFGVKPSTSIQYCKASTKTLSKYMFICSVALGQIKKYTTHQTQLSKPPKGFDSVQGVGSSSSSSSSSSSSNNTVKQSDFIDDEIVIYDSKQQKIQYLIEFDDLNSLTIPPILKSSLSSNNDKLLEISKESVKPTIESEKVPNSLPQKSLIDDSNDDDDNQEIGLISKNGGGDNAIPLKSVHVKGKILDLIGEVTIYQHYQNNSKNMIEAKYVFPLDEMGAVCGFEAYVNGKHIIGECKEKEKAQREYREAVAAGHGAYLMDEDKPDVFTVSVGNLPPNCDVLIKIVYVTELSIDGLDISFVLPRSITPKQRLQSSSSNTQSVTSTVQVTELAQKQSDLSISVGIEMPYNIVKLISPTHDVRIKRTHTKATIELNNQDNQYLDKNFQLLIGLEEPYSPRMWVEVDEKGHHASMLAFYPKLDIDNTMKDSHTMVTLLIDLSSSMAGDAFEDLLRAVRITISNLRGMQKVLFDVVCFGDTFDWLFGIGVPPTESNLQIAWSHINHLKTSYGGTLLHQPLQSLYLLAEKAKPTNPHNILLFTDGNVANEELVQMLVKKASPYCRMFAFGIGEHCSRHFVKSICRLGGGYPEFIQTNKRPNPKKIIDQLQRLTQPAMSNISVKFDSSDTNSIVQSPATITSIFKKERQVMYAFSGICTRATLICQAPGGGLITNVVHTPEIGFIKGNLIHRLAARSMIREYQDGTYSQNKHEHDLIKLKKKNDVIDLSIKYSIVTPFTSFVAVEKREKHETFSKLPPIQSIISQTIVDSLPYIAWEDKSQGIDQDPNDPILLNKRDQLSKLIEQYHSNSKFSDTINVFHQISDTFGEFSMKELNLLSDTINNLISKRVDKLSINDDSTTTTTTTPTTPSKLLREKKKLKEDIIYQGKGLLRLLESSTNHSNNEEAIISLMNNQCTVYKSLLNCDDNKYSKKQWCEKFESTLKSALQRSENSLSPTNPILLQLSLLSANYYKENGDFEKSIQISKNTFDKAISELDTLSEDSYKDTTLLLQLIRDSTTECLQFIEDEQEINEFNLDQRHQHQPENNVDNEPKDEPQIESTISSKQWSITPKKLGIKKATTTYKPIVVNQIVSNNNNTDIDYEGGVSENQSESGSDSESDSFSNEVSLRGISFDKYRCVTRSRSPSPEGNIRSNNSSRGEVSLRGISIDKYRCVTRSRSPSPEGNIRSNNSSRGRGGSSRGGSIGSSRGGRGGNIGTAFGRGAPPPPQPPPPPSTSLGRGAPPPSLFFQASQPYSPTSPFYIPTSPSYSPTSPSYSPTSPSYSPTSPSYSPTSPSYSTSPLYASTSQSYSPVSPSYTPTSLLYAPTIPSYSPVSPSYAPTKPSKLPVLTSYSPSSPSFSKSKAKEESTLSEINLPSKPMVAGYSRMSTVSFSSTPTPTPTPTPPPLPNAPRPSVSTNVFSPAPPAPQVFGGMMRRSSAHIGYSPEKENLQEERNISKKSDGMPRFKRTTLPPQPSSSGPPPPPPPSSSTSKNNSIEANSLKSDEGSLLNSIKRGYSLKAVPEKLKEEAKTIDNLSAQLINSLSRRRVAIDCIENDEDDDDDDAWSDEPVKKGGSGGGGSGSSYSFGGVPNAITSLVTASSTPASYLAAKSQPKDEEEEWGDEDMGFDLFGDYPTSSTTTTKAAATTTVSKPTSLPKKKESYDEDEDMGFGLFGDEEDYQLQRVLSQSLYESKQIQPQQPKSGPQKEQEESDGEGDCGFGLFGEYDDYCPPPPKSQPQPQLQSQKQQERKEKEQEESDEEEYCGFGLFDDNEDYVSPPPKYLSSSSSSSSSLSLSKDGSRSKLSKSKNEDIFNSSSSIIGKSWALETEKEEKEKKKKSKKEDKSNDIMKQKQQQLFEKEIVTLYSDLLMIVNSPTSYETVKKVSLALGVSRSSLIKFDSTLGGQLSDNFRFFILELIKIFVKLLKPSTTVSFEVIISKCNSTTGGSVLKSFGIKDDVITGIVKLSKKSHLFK

T1: MVPA-TurboID fusion protein (D. discoideum Major Vault Protein A fused to the TurboID biotin ligase) (Dictyostelium discoideum) (UniProt P34118)
T1 sequence: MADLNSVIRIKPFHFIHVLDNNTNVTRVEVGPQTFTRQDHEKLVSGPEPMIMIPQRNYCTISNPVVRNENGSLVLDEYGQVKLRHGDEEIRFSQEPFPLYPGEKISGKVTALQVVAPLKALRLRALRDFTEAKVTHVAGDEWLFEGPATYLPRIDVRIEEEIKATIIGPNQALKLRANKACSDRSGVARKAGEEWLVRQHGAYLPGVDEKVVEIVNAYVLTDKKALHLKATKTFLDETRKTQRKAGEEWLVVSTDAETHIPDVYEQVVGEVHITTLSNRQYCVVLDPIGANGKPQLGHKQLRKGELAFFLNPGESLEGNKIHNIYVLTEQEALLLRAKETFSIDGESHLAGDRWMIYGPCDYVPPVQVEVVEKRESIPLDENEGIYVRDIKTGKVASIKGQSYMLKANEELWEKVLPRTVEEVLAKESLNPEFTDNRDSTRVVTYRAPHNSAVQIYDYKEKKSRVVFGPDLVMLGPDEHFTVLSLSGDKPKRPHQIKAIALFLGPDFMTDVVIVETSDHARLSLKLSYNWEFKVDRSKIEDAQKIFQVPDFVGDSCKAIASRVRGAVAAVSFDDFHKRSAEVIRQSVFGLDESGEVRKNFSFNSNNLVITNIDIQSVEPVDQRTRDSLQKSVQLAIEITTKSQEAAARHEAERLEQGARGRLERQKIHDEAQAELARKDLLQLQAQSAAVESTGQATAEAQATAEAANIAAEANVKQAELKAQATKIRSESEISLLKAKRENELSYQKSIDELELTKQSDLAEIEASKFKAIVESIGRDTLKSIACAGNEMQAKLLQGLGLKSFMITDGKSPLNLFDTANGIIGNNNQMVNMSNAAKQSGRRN

B1: poly(ADP-ribose)polymerase Q55GU8 (protein, UniProt Q55GU8 1-644)
chain: MEKHQNQVIEENRSKPLINLTFFIDSKSKFKVSNYTLSKLIKDEFGGSIAFTLNPKVDYVITTSANFFSTKTTTFLSNQDLSKIKLINEDYFISQQKLEPTQRSKINDSYSIGNKQDSQVVNVCKKENDVVEKADDDLLKIIINPKHIPSVCYGANELKQPYFPEEYLILKSNLLSSTIIGKQNTNKFFYLELHQAIDNNLKKFYRIFTQFGRTDEIQKSNSQHRYVSNDLKEAMALYSSIYSQKIESDNGYIEVKMNSITKIGSKLKLAQLKQQKENDVNANTHIKVYNEETGEEETGQQSLFQRSYIETNVSKLMDIIYKEASKCLIKNFSVEVTENGIETQLGALSMAQIEEAKSILNEINNVLNKDGIDNQENLEMLSSRFYQLVPSKISTKKNRDSSKSVINSFESLNQLSELMNMMKDLTNSFNSNKTTSESKNHLDMKYYALNTHIEHLHQASAGYQIFIRNFLSNPHHQKAIDNGEIKILNCYRLDKKLESDNFLDVGNVQYLYHGSKPQNLVGLLSRGILPPDYVKQIGGKRTDFGYLGSGIYFSDDVVSSTYTSPIGEKGSRFIIMSSVSLGKVKEFSKIQPSLQCAPSGHHSCKGLKSTPTNPTDFKNNEYVVFNPNQSKLSFLIEYIENYKK
B2: Major Vault Protein B (protein, UniProt P54659 1-846)
chain: MATPVQASTVIRVKPHHYIHVLDNNTNVTRVEVGPQTFTRQDHERVLNPTPLPMILIPPRQYCIIENPIIRDKEGKLVVDKFNQPKLRHGDQEIRFSQDPFPLYPGEVVIAQPVPLQVIQTNSALRLKCLRDFVEVKADKTTVSHIAGDEWLFEGPGTYYPRVEVQVVEPVRAVIIKENQALKLRARLSFVDRRDVVRQVGEEWLVRESGAYLPGVSEEIVGFIQALVLTDRIAYQLLATRSFTDSFGKVRKAGEEWIITQKDCDTYIPDVNEKVIRDIKAITLTNRQYCIVENPIDPKTGKNKLGHKELLQGDRTFFLMPGESLVKGIQNVNVLSEDEALLLSAKEEFVEKKGTTTIVHKPGDLWMIYGPCDYIPPIQVDVVERRKRIPLDVNEGIYVRDIKTGKVRSVHGSSYMLLPNEERWAKPLAPIVEELLKKSASRDQNEEHNESDRDSTKVITYRVPHNAAVQIFDYRKKEARVVFGPELVMLEPDEEFTVLSLSGKIPKRPNHIRSLALFLGPDFMTDLITVETADHARLSLKLSYNWHFKVEQDNPSKLFATSDFTGDLCKATGSLVRAAVAASTFDNFHKHSSDIIQQAVFGSTDGSSNDCLYFETNGLVITNIDVQSVEPVDQRTLDSLQKSVQLAIEITTKSQEATARQEAERLEQMARGELERQKIIDEAKNEESRSKLVQLQAQSAAVESTGQAVAEARARAEAAIIEAESEIKQARLSTRAIEIEALSEIENLKAKHIVEIQHIKSLNNLELIKAKESATIETTKFENYVEALGSDTIKSIAQAPEETKAKLLAGLGLKSFMITDGKSPLNLFDTANGLIADAQRSEVDEE
B3: poly(ADP-ribose)polymerase Q8I7C6 (protein, UniProt Q8I7C6 1-700)
chain: MPPKKRQLSQSDEDVKTTTTTTTSTSTKPLTEIFDGIVFCFSGTFSVTQTELTKKVEGCGASTSKTCTAKVTHLVSTVDDFKKNGTAVSKALKSGIPIVTEGFITKSIEASKKLEEKDYSLSSSNDDEEEEEEEEEEEEEEEEEEVAKPTRRSSKKAPAKSEEKGEDKNKLTTRPTKKTKTNTSEAETKTAASDLDDSSSESEDEKNQISVKIKGRAANDPHFPDSRFHVYENGKDVYDATLNQTEISQNNNKFYIIQLLEADDGSSYSVWNRWGREGLKGQSSRKDFGKGGLNQAISLFCSKFYEKTKNTFTDRANFKKVAGKYDMIELDYSTDSKPKNGASTTATTTTTKKVVEHKKECSLDERVQELVKLIFDVKMMERTMTEAKYDLKKMPLGKLSKNQITKGYLVLKQIEDVMGGKSGESLSTLSSRFYTIIPHAFGMSVPPVINTNQMLIEKMNMLQNLADIEIATNIIKDSESDESNILELHYAKLKTDIQPLDENSCEYKNILLYVKNTYQGGKKPTIVNIFKIDRDGEADRYKTKKHLGNRKLLWHGSRLTNYASIISQGLRIAPPEAPVSGYRFGKGVYFADCMSLSANYCRTVGSNDFCMLLGDVALGKTADLARDTYMEKPQPNSHSTWALGTVEPDPKVFFQDTEGCITPYGQMIPSQHKGVSCYEHQYVVYDVAQVHLKYLLQLRN

Biological target: T1, MVPA-TurboID fusion protein (D. discoideum Major Vault Protein A fused to the TurboID biotin ligase) (Dictyostelium discoideum)
Test: proximity labelling; TurboID fused to the C-terminus of MVPA, expressed in D. discoideum; biotinylation 15 minutes with 50 µM biotin; RIPA lysis; biotinylated proteins isolated on MagStrep StrepTactin magnetic beads; LC-MS/MS (bulk and biotinylated peptides), differential abundance against a strain expressing TurboID alone (q < 0.01)

binding	Molecule
binds	B1
binds	B2
binds	B3

Biological target: T1, MVPA-TurboID fusion protein (D. discoideum Major Vault Protein A fused to the TurboID biotin ligase) (Dictyostelium discoideum)
Test: as above
Remark: another data set of the same source

binding	Molecule
binds	TEP1 (Q54CB5), likely Dictyostelium orthologue of Telomerase-associated protein 1 (from UniProt Q54CB5)
binds	poly(ADP-ribose)polymerase Q54LJ4 (from UniProt Q54LJ4 1-2563)
binds	poly(ADP-ribose)polymerase Q54HY5 (from UniProt Q54HY5 1-1803)
